We go through three compounds from PubChem BioAssay AID298 (DTP/NCI, 2004).

In the test the test system is MX-1 breast xenograft, intrarenal, nude mice, tumor weight. In words: NCI In Vivo Anticancer Drug Screen. Data for tumor model Human Mammary Carcinoma MX-1 Xenograft (intrarenal inoculation) in NU/NU BALB/C (nude) mice. As to conditions: T/C endpoint: mean tumor weight change, evaluated on day 11, higher T/C = larger tumour. Here is the method: The antitumor activity of compounds was measured in mice bearing transplantable tumors. Survival or tumor size were measured and the results are expressed as the measurement made in the treated group (T) divided by the measurement made in the vehicle treated control group (C). The tumor model used in this assay is Human Mammary Carcinoma MX-1 Xenograft (intrarenal inoculation) in NU/NU BALB/C (nude) mice
A general note: Xenograft models place foreign cells or tissue in a host animal.

The list is a part of this screen's results and no random one: it gathers some chemical classes. Other doses and runs of a compound may be missing. T/C is the treated group as % of the vehicle group. Schedule codes are those of the source, read here as Q, the interval in days (D) or hours (H), X, the number of doses. Some entries show no survivor count and are marked so; the dose need not have been tolerated. Some doses were run more than once; their values stand side by side, smallest first.

In the case of `CC1=C[C@H]2O[C@@H]3C[C@H]4OC(=O)/C=C\C=C\[C@H]([C@@H](C)O)OC[C@H](O)[C@@]5(C)O[C@@H]5C(=O)OC[C@@]2(C[C@H]1O)[C@]4(C)C31CO1` (stereo not given in full), the T/C by setting is: (dose: 0.62 mg/kg/injection, schedule: Q04DX003 (ip), vehicle: Klucel (hydroxypropylcellulose) (HPC)) 75 [survivor count not shown] and 92 % of control [survivor count not shown]; (dose: 1.25 mg/kg/injection, schedule: Q04DX003 (ip), vehicle: Klucel (hydroxypropylcellulose) (HPC)) 61 [survivor count not shown] and 73 % of control [survivor count not shown]; (dose: 2.5 mg/kg/injection, schedule: Q04DX003 (ip), vehicle: Klucel (hydroxypropylcellulose) (HPC)) 36 [survivor count not shown], 39 [survivor count not shown], 53 % of control [survivor count not shown]; (dose: 5.0 mg/kg/injection, schedule: Q04DX003 (ip), vehicle: Klucel (hydroxypropylcellulose) (HPC)) 36 % of control [survivor count not shown].
`CC(=O)OC[C@]12C[C@H](OC(=O)CC(C)C)C(C)=C[C@H]1O[C@@H]1[C@H](O)[C@@H](O)[C@@]2(C)[C@@]12CO2`: the T/C is 92 % of control [survivor count not shown] (dose: 1.0 mg/kg/injection, schedule: Q04DX003 (sc), vehicle: saline); 73 % of control [survivor count not shown] (dose: 2.0 mg/kg/injection, schedule: Q04DX003 (sc), vehicle: saline); 72 % of control [survivor count not shown] (dose: 4.0 mg/kg/injection, schedule: Q04DX003 (sc), vehicle: saline).
Turning to `CC(O)C1/C=C/C=C/C(=O)OC2CC3OC4C5OC5(C)C(O)CC4(COC(=O)C(O)C(C)CCO1)C2(C)C31CO1` (stereo not given), the T/C is 90 % of control [survivor count not shown] (dose: 12.5 mg/kg/injection, schedule: Q04DX003 (ip), vehicle: saline + alcohol); 97 % of control [survivor count not shown] (dose: 25.0 mg/kg/injection, schedule: Q04DX003 (ip), vehicle: saline + alcohol); 99 % of control [survivor count not shown] (dose: 50.0 mg/kg/injection, schedule: Q04DX003 (ip), vehicle: saline + alcohol).
